In PubChem BioAssay AID2685 (National Center for Advancing Translational Sciences (NCATS), 2010):
The other results are listed elsewhere or left out. Shown are side measurements of this screen, not its main read-out; they come without a call. Most of these compounds were active or inconclusive in the main read-out, so they are no random draw. The note in brackets gives the kind of curve behind each potency; many fits are weak.

Assay: qHTS Assay for Lipid Storage Modulators in Drosophila S3 Cells;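 for cell number change: cells counted by Cell Tracker Red CMTPX staining in the red channel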
Conditions: BODIPY lipid droplet fluorescence, 18-24 h; for cell number change: measured here: cell count max response, cells fed with added oleic acid
Outline: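 Drosophila S3 cells loaded with oleic acid (400 uM, as added) and compounds at several concentrations; lipid droplets imaged by 488-nm laser-scanning cytometry, 500–530 nm intensity and object ratio to cell channel. Percent activity normalized to 20 uM Triacsin C.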

[1] = measured here: lipid fluorescence (Fed channel) AC50, cells fed with added oleic acid
[2] = measured here: cell number channel AC50, cells fed with added oleic acid

Row | SMILES | cell number change | AC50 [1] | AC50 [2]
1 | COc1cc(NC(=O)c2cc3c(C)nc4ccccc4c3o2)cc(OC)c1OC | -24.9% | 0.82 µM [rising, full curve, poor fit] | –
2 | COc1ccc(CC(=O)N2CCN(c3ccccc3OC)CC2)cc1 | 6.15% | 0.517 µM [rising, partial curve, poor fit] | –
3 | Clc1ccc(CONc2ncnc3nonc23)c(Cl)c1 | -33.4% | – | 29.1 µM [falling, single point]
4 | CCCc1nc(SCC(=O)c2ccc(OC)cc2)c2c(=O)n(C)c(=O)n(C)c2n1 | – | 0.58 µM [falling, single point] | –
5 | CC(C)c1ccc(C2C3CSCC=C3C(C#N)=C(N)C2(C#N)C#N)cc1 (stereo unspecified) | 22% | 5.17 µM [falling, single point] | –
6 | CC(C)N(C(=O)C[n+]1ccc(/C=N/O)cc1)C(C)C | 6.09% | 7.31 µM [falling, single point] | –
7 | Cc1ccc(C2CC(c3cccs3)=NN2C(=O)CCl)cc1 (stereo unspecified) | -24.7% | 20.6 µM [falling, single point] | –
8 | S=C(NCCc1ccncc1)Nc1ccccc1 | – | 4.11 µM [falling, partial curve, poor fit] | –
9 | COC(=O)c1ccc(/C=N/NC(=O)CC(=O)NCC(C)C)cc1 | 19% | 29.1 µM [rising, single point] | –
10 | CC1Cc2ccccc2N1C(=O)CCS(=O)(=O)c1cccc2nonc12 (stereo unspecified) | 7.71% | 16.4 µM [rising, single point] | –
11 | O=C(Nc1nc2ccc(S(=O)(=O)N3CCOCC3)cc2s1)c1cccs1 | 20.3% | – | 0.0092 µM [rising, full curve, poor fit]
12 | CC(NC(=O)Cn1cc(Br)c([N+](=O)[O-])n1)c1ccccc1 (stereo unspecified) | 17.3% | 18.4 µM [rising, single point] | –
13 | CCOc1ccc(C(=O)NC(=S)Nc2ccc(N3CCCCC3)cc2)cc1[N+](=O)[O-] | -6.66% | 29.1 µM [falling, single point] | –
14 | CC(=O)c1ccc(NC(=O)CSc2nc(Nc3ccccc3)nc(N3CCOCC3)n2)cc1 | 26.1% | – | 6.51 µM [rising, single point]
15 | CC1=CC2=NC(=O)/C(=C\c3cccn3CCOc3ccc(C)c(C)c3)C(=N)N2O1 | 8.15% | 6.51 µM [rising, partial curve] | –
16 | COC(=O)c1sc(NC(=O)CCCn2nc([N+](=O)[O-])cc2C)c(C(=O)OC)c1C | 20.6% | 1.64 µM [rising, full curve] | –
17 | CCn1c(COc2cccc(C)c2)nnc1SCC(=O)Nc1cccc(C(=O)OC)c1 | -25.6% | 32.6 µM [falling, single point] | –
18 | O=C1C2CCCCN2C(=O)N1CCCCN1CCN(c2ccc([N+](=O)[O-])cc2)CC1 (stereo unspecified) | 38.2% | 6.51 µM [rising, single point] | 23.1 µM [rising, single point]
19 | Cc1ccnc(OC(C(=O)O)C(OCc2ccccc2)(c2ccccc2)c2ccc(C(F)(F)F)cc2)n1 (stereo unspecified) | -1.59% | 6.51 µM [rising, partial curve, poor fit] | –
20 | Cn1c(=O)[nH]c(=O)c2c1nc(NC1CCCC1)n2Cc1ccccc1 | 20.5% | – | –

Among those listed so far, three contain an aryl thioether with sulfur outside any ring:
Row | SMILES | cell number change | AC50 [1] | AC50 [2]
4 | CCCc1nc(SCC(=O)c2ccc(OC)cc2)c2c(=O)n(C)c(=O)n(C)c2n1 | – | 0.58 µM [falling, single point] | –
14 | CC(=O)c1ccc(NC(=O)CSc2nc(Nc3ccccc3)nc(N3CCOCC3)n2)cc1 | 26.1% | – | 6.51 µM [rising, single point]
17 | CCn1c(COc2cccc(C)c2)nnc1SCC(=O)Nc1cccc(C(=O)OC)c1 | -25.6% | 32.6 µM [falling, single point] | –

Remaining list, next part

Row | SMILES | cell number change | AC50 [1] | AC50 [2]
21 | O=C(Nc1ccc(Cl)c(S(=O)(=O)N2CCOCC2)c1)[C@@H]1CCCN1C(=O)c1cccs1 | 6.22% | – | –
22 | CCN(C(=O)Cn1cc(C(F)(F)F)ccc1=O)c1c(N)n(Cc2ccccc2)c(=O)[nH]c1=O | -28.6% | 0.58 µM [rising, single point] | –
23 | Fc1cccc(Cl)c1-c1nnc2ccc(N3CCOCC3)nn12 | -9.43% | 0.0206 µM [falling, full curve, poor fit] | –
24 | O=C(O)c1cccc(S(=O)(=O)Nc2ccc3[nH]c(=O)[nH]c3c2)c1 | -19.5% | 0.651 µM [falling, full curve] | –
25 | CC(NC(=O)CCC(=O)N1CCN(S(=O)(=O)c2ccc(Cl)cc2)CC1)c1ccccc1 (stereo unspecified) | -5.62% | – | –
26 | O=C(NNc1nc2cc3c(cc2s1)OCCO3)c1ccc(F)cc1 | 33.9% | 29.1 µM [rising, single point] | –
27 | Cc1ccc(COC(=O)c2cc([N+](=O)[O-])ccc2N2CCOCC2)cc1 | 33.7% | 5.62 µM [rising, single point] | –
28 | O=C(NCc1ccccc1Cl)C1CCN(S(=O)(=O)c2cccc3nonc23)CC1 | 119% | – | 29.1 µM [rising, single point]
29 | C=CCn1c(C)nnc1SCC(=O)c1[nH]c(C)c(C(C)=O)c1C | 38.3% | 0.731 µM [rising, full curve] | 1.84 µM [rising, full curve]
30 | O=C(Nc1ccccc1C(=O)O)c1cccc(NC(=O)c2ccccc2Cl)c1 | -5.47% | 0.58 µM [falling, single point] | –
31 | Cc1noc(C)c1CSCC(=O)Nc1ccc(OC(F)F)c(Cl)c1 | -50% | – | 0.651 µM [rising, full curve]
32 | Cc1ccc(-n2c(SCC(=O)Nc3ccc4cn[nH]c4c3)nnc2-c2ccco2)cc1 | -55.4% | 0.651 µM [rising, partial curve, poor fit] | 20.6 µM [falling, partial curve]
33 | O=S(=O)(c1ccc(Br)cc1)N1CCCN(Cc2cccc(F)c2)CC1 | -8.22% | 0.00461 µM [falling, full curve, poor fit] | –
34 | CCn1c(Cc2cccs2)nnc1SCC(=O)NC1CC1 | – | 23.1 µM [rising, partial curve] | –
35 | CCOC(=O)CCN(Cc1cccs1)S(=O)(=O)c1ccc(F)cc1 | 17.5% | 0.103 µM [rising, partial curve, poor fit] | –
36 | COC(=O)c1ccc(CNC(=O)COC(=O)CC23CC4CC(CC(Br)(C4)C2)C3)cc1 | – | 6.51 µM [falling, partial curve, poor fit] | –
37 | CCOc1ccc(NC(=O)CSc2nnc(C3CC3)n2N)cc1 | 33.7% | – | 25.9 µM [rising, single point]
38 | Cc1ccc(S(=O)(=O)Nc2ccc(S(=O)(=O)Nc3nccs3)cc2)c([N+](=O)[O-])c1 | 112% | 29.1 µM [rising, single point] | 14.6 µM [rising, partial curve]
39 | Cc1ccc2c(c1)nnn2C1CCN(S(=O)(=O)c2ccc(C(=O)NC3CCCC3)cc2)CC1 | 24.5% | – | 2.06 µM [rising, partial curve]
40 | CCCCNC(=O)C1CCN(C(=O)C2CCN(S(=O)(=O)c3ccc(C)cc3)CC2)CC1 | -9.43% | 6.51 µM [falling, partial curve, poor fit] | –

Row | SMILES | cell number change | AC50 [1] | AC50 [2]
41 | C/C=C/C(=O)NCCc1ccc(OC)c(OC)c1 | -7.73% | – | 2.06 µM [falling, partial curve, poor fit]
42 | COc1ccc(Cl)cc1NC(=O)C(C)OC(=O)c1ccc(NS(=O)(=O)c2ccc3[nH]c(=O)[nH]c3c2)cc1 (stereo unspecified) | 1.99% | 16.4 µM [rising, partial curve] | –
43 | COC(=O)c1cscc1S(=O)(=O)Cc1ccccc1 | 14.2% | – | –
44 | CC(NC(=O)CNC(=O)[C@@H]1Cc2ccccc2CN1)c1ccccc1 (stereo partly specified) | 14.1% | – | –
45 | CN(CC(=O)Nc1ccc(F)cc1)C(=O)c1cc(-c2cccs2)nn1-c1ccccc1 | 58.2% | 0.0058 µM [rising, full curve, poor fit] | 16.4 µM [rising, single point]
46 | CC(C(=O)N1CCN(c2ccc([N+](=O)[O-])cc2)CC1)N1C(=O)C2CC=CCC2C1=O (stereo unspecified) | 7.5% | 0.1 µM [rising, full curve, poor fit] | –
47 | Cc1c(NC(=O)c2csc3c2CCCC3)c(=O)n(-c2ccccc2)n1C | 17% | 6.51 µM [rising, single point] | –
48 | O=C(NCc1ccccc1Cl)c1ccc(S(=O)(=O)NCc2ccco2)cc1 | – | – | 7.31 µM [rising, single point]
49 | Cc1ccc(NC(=O)C2CCCN(S(=O)(=O)c3cccnc3)C2)c(C)c1 (stereo unspecified) | 20.2% | 0.651 µM [rising, full curve, poor fit] | –
50 | COCCN(Cc1cc2cc3c(cc2nc1Cl)OCO3)C(=O)Nc1ccc(F)cc1 | – | 1.84 µM [rising, partial curve] | –
51 | CNC(=O)c1ccc(-c2ccccc2)s1 | 12.4% | 29.1 µM [rising, single point] | –
52 | CCOC(=O)c1ccc(NC(=O)CSc2ccc(-c3cccnc3)nn2)cc1 | -29.6% | 18.4 µM [falling, single point] | –
53 | CCCCSc1nnc(-c2ccc(C)cc2)c2ccccc12 | -55.1% | – | 23.1 µM [falling, single point]
54 | O=C(OCC#CCSc1nnc(-c2cccc3ccccc23)s1)c1cccs1 | 53.6% | 25.9 µM [rising, partial curve] | 29.1 µM [rising, single point]
55 | CC(C)NS(=O)(=O)c1ccc(OCC(=O)N2CCN(c3ccccc3)CC2)cc1 | -1.49% | 0.461 µM [falling, partial curve, poor fit] | –
56 | CC(C)NC(=O)c1sc2nc3c(c(-c4cccs4)c2c1N)CN(C)CC3 | – | 6.51 µM [rising, partial curve] | 1.84 µM [rising, partial curve, poor fit]
57 | COCCn1c(C)cc(C(=O)COC(=O)c2c(C)nn(Cc3ccccc3)c2C)c1C | -14.1% | 29.1 µM [rising, single point] | –
58 | CCc1ccc2nc(NC(=O)c3ccc4c(=O)[nH]c(CN5CCOCC5)nc4c3)sc2c1 | 9.03% | – | 0.651 µM [rising, full curve, poor fit]

Some values from above:
Entry for COC(=O)c1sc(NC(=O)CCCn2nc([N+](=O)[O-])cc2C)c(C(=O)OC)c1C under AC50 [1]: 1.64 µM [rising, full curve]
Entry for COC(=O)c1cscc1S(=O)(=O)Cc1ccccc1 under cell number change: 14.2%
